## Screening data, single-dose tests

The chains behind the UniProt entries cited, without tags or fusion partners. Residues count along the entry.
UniProt Q8IDJ8, 1-583: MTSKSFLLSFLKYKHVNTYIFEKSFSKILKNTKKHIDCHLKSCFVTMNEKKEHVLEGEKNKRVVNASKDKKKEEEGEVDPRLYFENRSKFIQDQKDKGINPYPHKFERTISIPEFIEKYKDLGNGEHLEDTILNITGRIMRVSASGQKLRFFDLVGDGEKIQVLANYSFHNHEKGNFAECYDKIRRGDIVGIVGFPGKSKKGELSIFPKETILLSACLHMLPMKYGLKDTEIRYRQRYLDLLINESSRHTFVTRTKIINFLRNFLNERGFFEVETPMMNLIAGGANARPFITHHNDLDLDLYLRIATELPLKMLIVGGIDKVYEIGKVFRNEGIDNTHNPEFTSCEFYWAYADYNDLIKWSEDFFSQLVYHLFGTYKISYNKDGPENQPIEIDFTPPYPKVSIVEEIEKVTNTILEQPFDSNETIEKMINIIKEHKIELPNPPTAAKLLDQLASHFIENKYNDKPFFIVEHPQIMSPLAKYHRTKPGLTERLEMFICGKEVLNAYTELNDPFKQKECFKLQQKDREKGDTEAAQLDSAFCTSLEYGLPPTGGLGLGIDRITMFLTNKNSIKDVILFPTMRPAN

Measurements from “University of Dundee, Small-Polar-MMV Screening Library” (2021), ChEMBL document CHEMBL3988442.

A: 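Assay of Toxoplasma gondii numbers, read through their beta-galactosidase reporter with a colour substrate. Compounds at 10 µM. The record gives no direction; the compounds picked for IC50 retests had high values, so higher reads as fewer parasites. Of about 67,000 compounds tested this way, about 260 (0.38%) reached 50% or more in at least one test.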
B: 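Whole-parasite assay of Trypanosoma brucei over 72 hours; the read-out is not stated. Compounds at 30 µM. The record gives no direction; compounds that gave an IC50 in retests scored well above the rest, so higher reads as stronger inhibition. Values scatter widely below zero; nearly all retest evidence comes from the higher of the two concentrations used. About 64,000 compounds were tested under these conditions; 1.5% (about 940) showed 50% or more at least once.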
C: 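Cell assay of Leishmania donovani living inside macrophages; the read-out is not stated. Compounds at 30 µM. Direction is inferred from retests: higher values go with stronger inhibition. Of about 69,000 compounds tested this way, about 1,000 (1.5%) reached 50% or more in at least one test.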
D: 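Lysine-tRNA ligase, Plasmodium falciparum 3D7 (UniProt Q8IDJ8). Enzyme assay of the cytosolic lysyl-tRNA synthetase in 384-well plates, read by luminescence. Concentration: 30 µM. Higher reads as stronger inhibition, judged from the few compounds that gave an IC50. Size under these conditions: about 69,000 compounds, about 49 of them at 50% or above in at least one test.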

Results are given as percent effect.
The record does not define 0% and 100%; most values in the screen are far below 50% and negative numbers occur (in some assays of this library far below -100).
Compounds were drawn at random from those tested, without regard to their results.
Two or more numbers in one place are separate tests of the same structure; such repeats can differ widely.
A dash means the value is not listed here; it may have been measured.

| # | compound | A | B | C | D |
|---|---|---|---|---|---|
| 1 | `CCCc1cncnc1N1CCC2(CCC(=O)N(CCCO)C2)CC1` | 15.97 | -55.03 | 14.06 | 1.304 |
| 2 | `CC(=O)N1CCC2(CCCN(C(=O)c3ccccc3)C2)C1` (centres undefined) | -1.387 | -2.764 | -11.71 | -3.873 |
| 3 | `COc1c(CNC2(c3ccc(Cl)cc3)CCC2)c(C)nn1C` | 7.233 | -37.43 | -14.42 | 0.3773 |
| 4 | `O=C(O)C(F)(F)F.[H][C@@]12CCN(CCOCc3ccccc3)[C@]1([H])CC[C@H](C(=O)NC1CC1)O2` | -6.582 | -21.52 | 45.71 | - |
| 5 | `CN(C)CCOCc1nnc2n1CCN(Cc1ccc(F)cc1)CC2.O=C(O)C(F)(F)F.O=C(O)C(F)(F)F` | -14.5 | -11.21 | 1.458 | - |
| 6 | `CCc1nccn1C1CCCN(C(=O)c2ccc3nnc(C)n3c2)C1` (centres undefined) | 23.37 | 5.769 | 11.25 | -0.1549 |
| 7 | `O=C(NCCc1ccccc1)N1C[C@H]2C[C@H](C(=O)N3CCCC3)[C@@H](C1)O2` | - | - | - | 7.849 |
| 8 | `CCOC[C@@H]1CC[C@H]2[C@H](CCN2S(=O)(=O)c2ccc(F)cc2)O1` | - | - | - | 6.511 |
| 9 | `Cc1cc(C)c2c(c1)C1(CC(=O)Nc3c1cnn3C(C)C)C(=O)N2` (centres undefined) | 0.4782 | 19.26 | 6.59 | 0.8047 |
| 10 | `[H][C@]12CC[C@@]([H])(C1)N(C(=O)COc1cccc(NC(=O)CC)c1)C2` | -5.912 | -36.16 | 3.234 | - |
| 11 | `O=C(O)C(F)(F)F.[H][C@@]12CCN(c3ncc(F)cn3)[C@]1([H])CC[C@@H](C(=O)N1CCC(C)CC1)O2` | 6.773 | -6.066 | 21.36 | - |
| 12 | `CC(C)COc1cncc(NCc2nnc3ccccn23)n1` | 1.658 | -2.749 | 24.86 | -3.668 |
| 13 | `CCn1nc(C)c(S(=O)(=O)N(C)c2ccc(Cl)cn2)c1C` | -0.4545 | -4.163 | -0.1699 | 5.543 |
| 14 | `COCc1nc(C(=O)N2CCCC(n3ccnc3)C2)cs1` (centres undefined) | -0.4538 | - | 27.47 | -1.051 |
| 15 | `CN1CC(=O)N(c2ccccc2)CC12CCN(C(=O)CC1CC1)C2.O=C(O)C(F)(F)F` (centres undefined) | 9.948 | -1.844 | 27.75 | - |
| 16 | `CN(C)S(=O)(=O)N1CCO[C@H]2[C@H](Oc3cccnc3)CC[C@@H]21` | - | - | - | 2.703 |
| 17 | `CC(C)OCCS(=O)(=O)c1nccn1-c1cccc(F)c1` | 11.25 | -13.56 | 26.28 | -1.175 |
| 18 | `Nc1cc(CCC2CN(Cc3ccc(C(=O)O)cc3)CCO2)ccn1` (centres undefined) | 5.109 | -15.96 | -22.87 | -3.244 |
| 19 | `Cc1cncc(NC(=O)c2ccc(CN3CCC(CO)CC3)cc2)c1` | -7.56 | -10.38 | 22.51 & 3.093 | 4.732 |
| 20 | `Cc1cc(C)n(-c2cncc(NCCNC(=O)CC3CCCC3)n2)n1` | 3.562 | 29.71 | 11.9 | 7.947 |
| 21 | `O=C(Cc1ccccc1F)N1CCN(Cc2noc(C3CC3)n2)CC1` | 8.886 | -16.85 | 16.87 | 1.554 |
| 22 | `Cc1nn(-c2ccccc2)c2nc(C(C)(C)CN3CCN(C)CC3)[nH]c12` | -2.716 | 9.426 | 37.99 | -7.766 |
| 23 | `O=C(O)C(F)(F)F.O=C(O)C(F)(F)F.[H][C@@]12CCCO[C@]1([H])[C@H](N(C)Cc1ccco1)CN(Cc1ccc(C)o1)C2` | 1.724 | 25.08 | 22.45 | - |
| 24 | `O=C(NCc1ccccc1)[C@H]1C[C@@H]2CN(C(=O)NC3CCCC3)C[C@H]1O2` | - | - | - | 0.9913 |
| 25 | `CN1CC(C(=O)NCc2ccc(OCc3cccnc3)cc2)CC1=O` (centres undefined) | -2.953 | -13.61 | 10.62 | 3.091 |
| 26 | `N#CC(NC(=O)CCCOc1cccnc1)c1ccc(F)cc1F` (centres undefined) | -3.993 | -18.22 | 9.68 | 3.215 |
| 27 | `c1coc(-c2nnc(CN3CCCC3Cn3cncn3)o2)c1` (centres undefined) | -2.478 | - | 23.53 | 1.757 |
| 28 | `Cc1nc(C)c(C(=O)N2CCc3nnc(C4CCCCN4C)n3CC2)o1` (centres undefined) | 0.07075 | -6.182 | -8.678 | -0.2094 |
| 29 | `Cc1ccc(OC2(C(=O)O)CCN(C(=O)c3ccc(F)cc3)CC2)cn1` | 8.762 | 40.95 | 17.63 | 0.5351 |
| 30 | `Cc1ncsc1C(=O)NC1CCN(Cc2cccnc2)CC1` | 5.082 | 25.85 | 19.29 | 1.774 |
| 31 | `O=S(=O)(N1CCCC1)N1C[C@@H](c2cccc(F)c2)[C@@H]2NCCCCC[C@H]21` | - | - | - | 3.679 |
| 32 | `Cc1cc(CN2CCOC(CNc3cccnn3)C2)no1` (centres undefined) | 0.4614 | 8.138 | 30.64 | 0.2953 |
| 33 | `CN(CCc1cccs1)C(=O)Nc1ccc2c(c1)C(=O)N(C)CC2` | 6.991 | -53.58 | 16.26 | 0.719 |
| 34 | `CNC(=O)c1cc2c(nc1N(C)C)CCN(S(=O)(=O)C1CC1)CC2.O=C(O)C(F)(F)F` | -2.661 | -23.9 | -14.16 | - |
| 35 | `Cc1noc(C)c1CN1CC[C@H]2OCC[C@@H](C(=O)NCC3CC3)[C@H]2C1` | - | - | - | 5.503 |
| 36 | `O=C(c1cnc(Nc2ccccc2)nc1)N1CCS(=O)(=O)CC1` | 4.401 | -8.165 | 13 | 3.034 |
| 37 | `N#Cc1ccc(CN2CCN(c3ccncc3Cl)CC2=O)cc1` | 5.324 | 14.6 | 7.445 | 0.3431 |
| 38 | `CO[C@H]1CCN(c2ncc(F)cn2)[C@@H]2CN(Cc3ccco3)C[C@H]12` | - | - | - | -2.944 |
| 39 | `CS(=O)(=O)NC1CCN(C(=O)NCCNc2ccccn2)CC1` | -1.939 | -45.44 | -21.52 | -3.488 |
| 40 | `Cn1cc(CN2CCCC23CCN(Cc2nccn2C)CC3)cn1.O=C(O)C(F)(F)F.O=C(O)C(F)(F)F` | -23.52 | -16.25 | 22.67 | - |
| 41 | `O=C(c1cc2ccccc2o1)N1CCN(Cn2cc(Cl)cn2)CC1` | 9.296 | -39.74 | 19.85 | 1.42 |
| 42 | `CCOc1ncccc1Cn1cc(-c2ccc(CO)o2)nn1` | -2.169 | -20.96 | -7.957 | 2.41 |
| 43 | `CC(=O)N1CCC[C@@H](NCc2c[nH]c3ccccc23)[C@@H]1c1ccc(C)s1` | - | - | - | 1.641 |
| 44 | `CN1C[C@H](c2ccccc2)[C@H]2CN(C(=O)Cc3cccc(O)c3)CC[C@H]21` | - | - | - | 1.641 |
| 45 | `O=C(O)C(F)(F)F.O=C(O)C(F)(F)F.[H][C@@]12CCCO[C@]1([H])[C@H](N(C)C)CN(Cc1ccoc1)C2` | -2.439 | 3.292 | 17.56 | - |
| 46 | `[H][C@@]12COC[C@H](c3nc(C)no3)[C@]1([H])CN(C(=O)Cc1ccc(F)cc1)C2` | 14.39 | 20.72 | -2.11 | - |
| 47 | `Cc1ncnc2c1CCN(C(=O)c1cccc(F)c1)CC2` | -1.363 | -18.09 | 11.49 | -0.644 |
| 48 | `O=C(COC1CCCC1)NS(=O)(=O)c1ccc2c(c1)OCCCO2` | -18.97 | 15.42 | 19.86 | -0.4763 |
| 49 | `CCNC(=O)Nc1ccc(N2CCC(OC)CC2)c(C(F)(F)F)c1` | 10.99 | -0.4307 | 20.68 | 8.609 |
| 50 | `COc1ccc(C(=O)Cn2cnnc2[S+](C)[O-])cc1Cl` (centres undefined) | -2.145 | -12.25 | -1.212 | 2.97 |
| 51 | `Cc1cccc(CN2CCC3(CC2)CC(c2cccnc2)C(=O)N3C)n1.O=C(O)C(F)(F)F.O=C(O)C(F)(F)F` (centres undefined) | 5.721 | -33.95 | 6.555 | - |
| 52 | `Cc1ccc(CN2CC(C(=O)Nc3ccccc3)C3(CCOCC3)C2)s1` (centres undefined) | - | - | - | 3.465 |
| 53 | `O=S(=O)(c1ccc(F)cc1)n1cc(Cl)cn1` | -7.189 | -15.45 | -1.335 | 0.2465 |
| 54 | `CCC(NCc1cc[nH]n1)c1nc(C(F)(F)F)cs1` (centres undefined) | 0.8751 | -19.15 | -7.273 | 1.571 |
| 55 | `CC1c2ncc(Cn3cncn3)n2CCN1C(=O)c1ccccn1` (centres undefined) | -11.16 | -10.76 | 15.14 | -2.618 |
| 56 | `CNC(=O)N1CCOCC1c1c(C)nn(C)c1C` (centres undefined) | -16.08 | -9.44 | 13.64 | -0.7645 |
| 57 | `CCN(CC)C(C(=O)Nc1ccc2c(c1)CCC(=O)N2)c1ccccc1` (centres undefined) | -0.12 | 4.791 | 15.74 | 2.026 |
| 58 | `CCN1CCN(CCCNC(=O)NC(C)c2nncn2C)CC1` (centres undefined) | -5.903 | -18.14 | 25.29 | 2.32 |
| 59 | `COCCN1CCC2(CC1)CC(c1cccnc1)CO2` (centres undefined) | - | - | - | 0.8334 |
| 60 | `CSc1ccc(CN2CCCC3(CNC(=O)c4ccccc4O3)C2)cc1` (centres undefined) | -15.69 | 60.61 | -6.096 | -0.4964 |
| 61 | `O=C(CO)N1CCC(F)(F)C2(CCN(c3ccccc3)C2)C1.O=C(O)C(F)(F)F` (centres undefined) | -22.8 | - | 10.82 | - |
| 62 | `Cc1ccc(F)c(OC2(C(=O)O)CCN(C(=O)C3CCCC3)CC2)c1` | 10.47 | -48.53 | 24.64 | 1.832 |
| 63 | `[H][C@@]12CCN(Cc3scnc3C)C[C@]1(C(=O)NCC1CC1)CCO2` | 5.305 | -20.89 | 2.938 & 11.29 | - |
| 64 | `CCC(C(=O)NCc1ccncc1)N(c1ccccc1)S(C)(=O)=O` (centres undefined) | 4.688 | 1.68 | 29.47 | 1.958 |
| 65 | `CC(C)(O)CCc1ccc(C(=O)N2Cc3cnn(CCO)c3C2)cc1` | -7.174 | 17.41 | 28.12 | 2.168 |
| 66 | `CC(C)N1CCCC2(CCN(C(=O)CCCn3ccnc3)C2)C1=O` (centres undefined) | -4.596 | 30.74 | 2.674 | -0.9063 |
| 67 | `O=C(NCc1ccc2c(c1)CCCO2)c1ccc(C2CCNC2)cc1` (centres undefined) | -12.33 | -3.192 | -12.43 | 0.7649 |

The last 4 entries again:

compound,A,B,C,D
CCC(C(=O)NCc1ccncc1)N(c1ccccc1)S(C)(=O)=O (centres undefined),4.688,1.68,29.47,1.958
CC(C)(O)CCc1ccc(C(=O)N2Cc3cnn(CCO)c3C2)cc1,-7.174,17.41,28.12,2.168
CC(C)N1CCCC2(CCN(C(=O)CCCn3ccnc3)C2)C1=O (centres undefined),-4.596,30.74,2.674,-0.9063
O=C(NCc1ccc2c(c1)CCCO2)c1ccc(C2CCNC2)cc1 (centres undefined),-12.33,-3.192,-12.43,0.7649